Data reported in US20210395381A1.

B1: Clone 8 (VNAR)
VNAR: ARVDQTPQTITKETGESLTINCVLRDSNCALPSTYWYRKKSGSTNEESISKGGRYVETVNSGSKSFSLRINDLTVEDSGTYRCKVIAQLSSILRGCNYRKHDVYGDGTAVTVNA
B2: Clone 48 (VNAR)
VNAR: ARVDQTPRSVTKETGESLTINCVLRDASYELGSTCWYRKKSGSTNEESISKGGRYVETVNSGSKSFSLRINDLTVEDGGTYRCGASFMLSHPGGCDSCVIMCQTRRQGVAACGDGTAVTVNA
B3: Clone 61 (VNAR)
VNAR: ARVDQTPQTITKETGESLTINCVLRDSNCALSSTYWYRKKSDSTNEESISKGGRYVETVNSGSKSFSLKINDLTVEDSGTYRCKVLSVQRLFCAIFASEDVYGDGTAVTVNA
B4: Clone 62 (VNAR)
VNAR: B3 VNAR with W36Q, D42G, K69R, E76K, K84N
B5: Clone 63 (VNAR)
VNAR: ARVDQTPQTITKETGESLTINCVLRDSNCALPSTYWYRKKSGSTNEESISKGGRYVETVNSGSKSFSLKINDLTVEDSGTYRCKVANEYWLRLNQCFYLQHDVYGGGTVVTVNA
B6: Clone 64 (VNAR)
VNAR: ARVDQTPQTITKETGESLTINCVLRDSNCALSSTYWYRKKSGSTNEESISKGGRYVETVNSGSKSFSLRINDLTVEDSGTYRCNVQLQFDCKEWEDVYGGGTVVTVNA
B7: Clone 65 (VNAR)
VNAR: ARVDQTPRSVTKETGESLTINCVLRDSICALSSTHWYRKKSGSTNEESISKGGRYVETVNSGSKSFSLRINDLTVEDSGTYRCKVTVTKWCCKQRDGCTGDVYGGGTAVTVNA
B8: Clone 66 (VNAR)
chain: ARVDQTPQTITKETGESLTINCVLRDSICALSSTHWYRKKSGSTNQESISKGGRYVETVNSGSKSFSLRINDLTVEDSGTYRCNVVQKGRIKCSRMLEDVYGGGTVVTMNA
B9: Clone 67 (VNAR)
VNAR: ARVDQTPQTITKETGESLTINCVLRDNNCASSTTYWYRKKSGSTNEENISKGGRYVETVNSGSKSFSLKINDLTVEDSGTYRCNVRDVQACGNDWVWLDVYGGGTVVTVNA
B10: Clone 68 (VNAR)
VNAR: PRVDQTPQTITKETGESLTINCVLRDSNCALPSTYWYRKKSGSTNEESISKGGRYVETVNSGSKSFSLRINDLTVEDSGTYRCNVSGGRGGVCWQGSDVYGGGTVVTVNA
B11: Clone 69 (VNAR)
VNAR: ARVDQTPQTITKETGESLTINCVLRDSNCALPITYWYRKKSGSTNEESISKGGRYVETVNSGSKSFSLRINDLTVKDSGTYRCNVPAQLLLYSGQQGVDVYGDGTVVTVNA
B12: Clone 71 (VNAR)
VNAR: ARVDQTPRSVTKETGESLTINCVLRDASYELGSTCWYRKKSGSTNEESISKGGRYVETVNSGSKSFSLRINDLTVEDGGTYRCGALIQSHRNGRCDGWFDICPTSLGGAACGDGTAVTVNA
B13: Clone 72 (VNAR)
VNAR: ARVDQTPQTVTKETGESLTINCVLRDSNCALPSTYWYRKKSGSTNEESISKGGRYVETVNSGSKSFSLRINDLTVEDSGTYRCNVIWLQVGVCDDYPYDVYGDGTAVTVNA
B14: Clone 73 (VNAR)
VNAR: B6 VNAR with S32P, Q86D, L87G, Q88W, F89S, D90L, K92Q, W94L, E95C, A108T
B15: Clone 74 (VNAR)
VNAR: ARVDQTPRSVTKETGESLTINCVLRDASYALGSTCWYRKKSGSTNEESISKGGRYVETVNSGSKSFSLRINDLTVEDGGTYRCGVSLRGKTMRGECDYQVSVGLCGGQAAACGDGTAVTVNA
B16: Clone 75 (VNAR)
VNAR: ARVDQTPQTITKETGESLTINCVLRDSNCALPSTYWYRKKSDSTNEESISKGGRYVETVNSGSKSFSLRINDLVVEDSGTYRCNVMRLERCRQNGDVYGGGTAVTVNA
B17: Clone 76 (VNAR)
VNAR: ARVDQTPQTVTKETGESLTINCVLRDSNCALSNLYWYRKKSGSTNEESISLGGRYVETVNSGSKSFSLKINDLTVEDSGTYRCNVPALQVCCDGTQLDVYGGGTAVTVNA
B18: Clone 77 (VNAR)
VNAR: ARVDQTPQTITKETGSLTINCVLRDSNCDLSRTYWYRKKSGSTNEESISKGGRYVETVNSGSKSFSLRINDLVVEDSGTYRCNVPVGHCCYCAGFDVYGDGTVVTVNA
B19: Clone 78 (VNAR)
VNAR: ARVDQTPQTITKETGESLTINCVLRDSNCALPSTYWYRKKSGSTNEESISKGGRYVETVNSGSKSFSLRINDLTVKDSGTYRCNVFILGQLYGYDYLDVYGGGTAVTVNA
B20: Clone 79 (VNAR)
VNAR: ARVDQTPQTITKETGESLTINCVLRDSNCALSNLYWYRKKSGSTNEESISLGGRYVETVNSGSKSFSLRINDLTVEDSGTYRCKVSRRAQRLVSDDQSAWMDVYGGGTVVTVNA
B21: Clone 80 (VNAR)
VNAR: ARVDQTPQTITKETGESLTINCVLRDSNCALSNLYWYRKKSGSTNEESISKGGRYVETVNSGSKSFSLRINDLTVKDSGTYRCKVGAERYKSSWQCMGRSASDVYGGGTVVTVNA
B22: Clone 82 (VNAR)
VNAR: ARVDQTPQTITKETGESLTINCVLRDSNCDLSRTYWYRKKSGSTNEESISKGGRYVETVNSGSKSFSLRINDLVVEDSGTYRCNVYNPSSYTSVCDVYGGGTAVTVNA
B23: Clone 84 (VNAR)
VNAR: ARVDQTPQTITKETGESLTINCVLRDSNCALSNLYWYRKKSGSTNEESISLGGRYVETVNSGSKSFSLKINDLTVEDSGTYRCNVQLSNYYVDWYDVYGGGTVVTVNA
B24: Clone 85 (VNAR)
VNAR: ARVDQTPQTITKETGESLTINCVLRADSNCELSSTYWYRKKSGSTNEARISKGGRYVETVNSGSKSFSLRINDLTVEDSGTYRCNVFAQRHCGYYRDVYGDGTAVTVNA

The binders below were run against TfR-1 (species not stated at the place) (assay: phage ELISA).

binding, binds:
B1
B2
B3
B4
B5
B6
B7
B8
B9
B10
B11
B12
B13
B14
B15
B16
B17
B18
B19
B20
B21
B22
B23
B24

Where a chain is given by its changes, count along the chain named. No constants are given. Whether binding was seen depends on the method and setting. A result given as binding can be weak or reduced; the word gives no strength.
